Consider two substances from patent US20050288225A1.

By UniProt entry, the sequences of proteins in these tests, tags left out. Where a name states a change or a piece, a line headed by the entry shows the natural chain unless it says otherwise.
UniProt P10415: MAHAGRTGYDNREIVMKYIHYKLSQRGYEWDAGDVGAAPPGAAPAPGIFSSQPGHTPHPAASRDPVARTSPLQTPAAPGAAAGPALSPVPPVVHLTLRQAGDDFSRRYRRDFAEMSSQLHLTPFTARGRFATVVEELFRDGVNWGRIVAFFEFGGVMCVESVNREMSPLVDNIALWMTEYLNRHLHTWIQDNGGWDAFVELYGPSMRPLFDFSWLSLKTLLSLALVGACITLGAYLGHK
UniProt O43353: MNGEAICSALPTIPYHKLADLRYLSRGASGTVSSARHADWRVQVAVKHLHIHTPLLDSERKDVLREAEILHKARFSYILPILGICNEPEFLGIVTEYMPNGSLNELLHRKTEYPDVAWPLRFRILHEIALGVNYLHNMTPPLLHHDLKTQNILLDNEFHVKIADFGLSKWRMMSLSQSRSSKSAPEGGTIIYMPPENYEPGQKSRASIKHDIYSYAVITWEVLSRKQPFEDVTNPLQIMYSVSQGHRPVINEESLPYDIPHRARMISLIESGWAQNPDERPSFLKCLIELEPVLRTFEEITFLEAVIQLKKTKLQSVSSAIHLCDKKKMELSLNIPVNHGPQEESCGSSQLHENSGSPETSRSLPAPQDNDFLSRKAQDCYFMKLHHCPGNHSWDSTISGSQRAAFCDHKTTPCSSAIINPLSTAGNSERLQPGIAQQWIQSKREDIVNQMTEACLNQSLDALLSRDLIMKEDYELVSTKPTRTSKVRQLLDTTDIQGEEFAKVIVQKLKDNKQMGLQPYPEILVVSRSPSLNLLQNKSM

For assay [1], the target named is T1, Flag-tagged TRAF1 (UniProt Q13077).
T1 sequence (looked up): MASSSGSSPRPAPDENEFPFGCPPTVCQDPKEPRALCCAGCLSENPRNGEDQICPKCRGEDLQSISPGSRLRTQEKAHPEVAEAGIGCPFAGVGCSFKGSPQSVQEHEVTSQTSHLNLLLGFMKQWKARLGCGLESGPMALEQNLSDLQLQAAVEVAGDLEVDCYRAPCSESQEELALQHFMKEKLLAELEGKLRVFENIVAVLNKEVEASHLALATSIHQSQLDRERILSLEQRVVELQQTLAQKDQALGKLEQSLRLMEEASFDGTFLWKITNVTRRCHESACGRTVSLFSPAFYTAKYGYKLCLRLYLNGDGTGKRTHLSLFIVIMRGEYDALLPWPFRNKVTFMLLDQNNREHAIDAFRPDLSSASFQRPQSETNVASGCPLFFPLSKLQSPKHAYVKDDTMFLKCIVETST
The assay can be described thus: co-immunoprecipitation from transfected 293 cells (legend of FIG. 8).

Assay [2] addresses T1, Flag-tagged TRAF1. The experiment in a line: co-immunoprecipitation from transfected 293 cells: anti-FLAG IP, anti-HA western blot.
In a further assay the target is BCL2 (UniProt P10415). The experiment in a line: yeast two-hybrid binding assay.

These are yes or no findings as the source states them, for the method shown. For part of these data: Binding seen in cells or lysates may run through a third protein. Some results given as binding are weak or reduced against the parent protein; the word gives no strength. For part of these data: Sequences can lack the tags named with a protein.

Turning to “HA-tagged B1 protein (from UniProt O43353 1-540) (enzyme)”, the binding entry with Flag-tagged TRAF1 [1] and with Flag-tagged TRAF1 [2] was “binds” in each case.

In the case of “truncated B1 having only the intermediate region and the C-terminal CARD region (from UniProt O43353 315-540)”, in the assay with BCL2, the binding entry is “binds”.
